These are yes or no findings as the source states them, for the method shown. Binding seen in cells or lysates may run through a third protein. Some binding calls cover weakened binding; strength is not graded here. For part of these data: Tags and fused reporters may be left off the sequences shown.

Protein sequences, listed by entry. Tags and fused reporters are not part of them. Lines headed by an entry give the natural chain unless they say otherwise; changes in a name come on top.
UniProt P01106: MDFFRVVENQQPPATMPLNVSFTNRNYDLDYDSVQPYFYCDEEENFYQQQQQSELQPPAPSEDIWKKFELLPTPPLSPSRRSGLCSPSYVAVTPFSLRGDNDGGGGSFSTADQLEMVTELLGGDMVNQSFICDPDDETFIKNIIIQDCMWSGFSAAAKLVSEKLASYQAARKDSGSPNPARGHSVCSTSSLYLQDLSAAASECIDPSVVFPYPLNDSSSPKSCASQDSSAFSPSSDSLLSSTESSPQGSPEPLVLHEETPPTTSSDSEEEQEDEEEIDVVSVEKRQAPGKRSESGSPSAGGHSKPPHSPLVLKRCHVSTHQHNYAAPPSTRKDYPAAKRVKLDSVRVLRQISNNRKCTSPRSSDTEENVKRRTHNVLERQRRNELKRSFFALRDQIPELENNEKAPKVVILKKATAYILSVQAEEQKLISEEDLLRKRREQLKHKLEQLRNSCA

Consider three substances from PMC10666356.

In assay [1] the target is T1, Flag-tagged NONO, wild type, expressed in AGS cells (human) (UniProt Q15233).
T1 sequence: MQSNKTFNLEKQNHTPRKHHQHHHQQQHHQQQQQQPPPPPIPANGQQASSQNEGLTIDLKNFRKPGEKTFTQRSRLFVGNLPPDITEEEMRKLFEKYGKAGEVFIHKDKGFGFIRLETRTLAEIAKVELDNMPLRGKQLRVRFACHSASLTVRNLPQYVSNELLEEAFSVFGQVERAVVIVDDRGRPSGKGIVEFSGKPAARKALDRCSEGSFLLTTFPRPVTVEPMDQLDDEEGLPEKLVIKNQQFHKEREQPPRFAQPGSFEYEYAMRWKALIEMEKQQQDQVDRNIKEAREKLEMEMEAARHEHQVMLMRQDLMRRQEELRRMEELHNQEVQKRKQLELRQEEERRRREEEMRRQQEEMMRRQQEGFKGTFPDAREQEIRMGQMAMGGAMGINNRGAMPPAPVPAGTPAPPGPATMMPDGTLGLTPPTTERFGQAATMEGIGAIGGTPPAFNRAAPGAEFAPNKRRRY
Nature of the assay: co-IP; AGS cells transfected with HA-tagged and Flag-tagged constructs of NONO and c-Myc (Fig. S3b); western blot. In general terms: In western blotting, separated proteins are transferred to a membrane and probed.

Assay [2] deals with T2, NONO in BiFC vector pBiFC-VN173 (human) (UniProt Q15233).
T2 sequence: T1 sequence
Nature of the assay: split reporter; NONO in pBiFC-VN173 and c-Myc in pBiFC-VC155 co-transfected into AGS cells for 24 h; confocal microscopy; cells stably transfected with mock, circ-hnRNPU, sh-Scb or sh-circ-hnRNPU #1 (signal decreased or increased).

The target of assay [3] is T1, Flag-tagged NONO, wild type, expressed in AGS cells (human). Nature of the assay: co-IP; AGS cells transfected with Flag-tagged WT or mNLS NONO; the legend names 'RIP and western blot'; c-Myc protein detected by western blot.

Take “HA-tagged c-Myc expressed in AGS cells (from UniProt P01106-2 1-454)”: the binding result in assay [1] is recorded as “binds”.

Regarding “c-Myc in BiFC vector pBiFC-VC155 (from UniProt P01106-2 1-454)”, in assay [2], the binding entry was “binds”. As to “c-Myc protein in AGS cells (from UniProt P01106 1-454)”, the binding result in assay [3] was “binds”.
